Test results reported in publication doi:10.1101/592923.

Sequences of proteins named here, by UniProt entry; tags and fusion partners are left off.
UniProt Q00416: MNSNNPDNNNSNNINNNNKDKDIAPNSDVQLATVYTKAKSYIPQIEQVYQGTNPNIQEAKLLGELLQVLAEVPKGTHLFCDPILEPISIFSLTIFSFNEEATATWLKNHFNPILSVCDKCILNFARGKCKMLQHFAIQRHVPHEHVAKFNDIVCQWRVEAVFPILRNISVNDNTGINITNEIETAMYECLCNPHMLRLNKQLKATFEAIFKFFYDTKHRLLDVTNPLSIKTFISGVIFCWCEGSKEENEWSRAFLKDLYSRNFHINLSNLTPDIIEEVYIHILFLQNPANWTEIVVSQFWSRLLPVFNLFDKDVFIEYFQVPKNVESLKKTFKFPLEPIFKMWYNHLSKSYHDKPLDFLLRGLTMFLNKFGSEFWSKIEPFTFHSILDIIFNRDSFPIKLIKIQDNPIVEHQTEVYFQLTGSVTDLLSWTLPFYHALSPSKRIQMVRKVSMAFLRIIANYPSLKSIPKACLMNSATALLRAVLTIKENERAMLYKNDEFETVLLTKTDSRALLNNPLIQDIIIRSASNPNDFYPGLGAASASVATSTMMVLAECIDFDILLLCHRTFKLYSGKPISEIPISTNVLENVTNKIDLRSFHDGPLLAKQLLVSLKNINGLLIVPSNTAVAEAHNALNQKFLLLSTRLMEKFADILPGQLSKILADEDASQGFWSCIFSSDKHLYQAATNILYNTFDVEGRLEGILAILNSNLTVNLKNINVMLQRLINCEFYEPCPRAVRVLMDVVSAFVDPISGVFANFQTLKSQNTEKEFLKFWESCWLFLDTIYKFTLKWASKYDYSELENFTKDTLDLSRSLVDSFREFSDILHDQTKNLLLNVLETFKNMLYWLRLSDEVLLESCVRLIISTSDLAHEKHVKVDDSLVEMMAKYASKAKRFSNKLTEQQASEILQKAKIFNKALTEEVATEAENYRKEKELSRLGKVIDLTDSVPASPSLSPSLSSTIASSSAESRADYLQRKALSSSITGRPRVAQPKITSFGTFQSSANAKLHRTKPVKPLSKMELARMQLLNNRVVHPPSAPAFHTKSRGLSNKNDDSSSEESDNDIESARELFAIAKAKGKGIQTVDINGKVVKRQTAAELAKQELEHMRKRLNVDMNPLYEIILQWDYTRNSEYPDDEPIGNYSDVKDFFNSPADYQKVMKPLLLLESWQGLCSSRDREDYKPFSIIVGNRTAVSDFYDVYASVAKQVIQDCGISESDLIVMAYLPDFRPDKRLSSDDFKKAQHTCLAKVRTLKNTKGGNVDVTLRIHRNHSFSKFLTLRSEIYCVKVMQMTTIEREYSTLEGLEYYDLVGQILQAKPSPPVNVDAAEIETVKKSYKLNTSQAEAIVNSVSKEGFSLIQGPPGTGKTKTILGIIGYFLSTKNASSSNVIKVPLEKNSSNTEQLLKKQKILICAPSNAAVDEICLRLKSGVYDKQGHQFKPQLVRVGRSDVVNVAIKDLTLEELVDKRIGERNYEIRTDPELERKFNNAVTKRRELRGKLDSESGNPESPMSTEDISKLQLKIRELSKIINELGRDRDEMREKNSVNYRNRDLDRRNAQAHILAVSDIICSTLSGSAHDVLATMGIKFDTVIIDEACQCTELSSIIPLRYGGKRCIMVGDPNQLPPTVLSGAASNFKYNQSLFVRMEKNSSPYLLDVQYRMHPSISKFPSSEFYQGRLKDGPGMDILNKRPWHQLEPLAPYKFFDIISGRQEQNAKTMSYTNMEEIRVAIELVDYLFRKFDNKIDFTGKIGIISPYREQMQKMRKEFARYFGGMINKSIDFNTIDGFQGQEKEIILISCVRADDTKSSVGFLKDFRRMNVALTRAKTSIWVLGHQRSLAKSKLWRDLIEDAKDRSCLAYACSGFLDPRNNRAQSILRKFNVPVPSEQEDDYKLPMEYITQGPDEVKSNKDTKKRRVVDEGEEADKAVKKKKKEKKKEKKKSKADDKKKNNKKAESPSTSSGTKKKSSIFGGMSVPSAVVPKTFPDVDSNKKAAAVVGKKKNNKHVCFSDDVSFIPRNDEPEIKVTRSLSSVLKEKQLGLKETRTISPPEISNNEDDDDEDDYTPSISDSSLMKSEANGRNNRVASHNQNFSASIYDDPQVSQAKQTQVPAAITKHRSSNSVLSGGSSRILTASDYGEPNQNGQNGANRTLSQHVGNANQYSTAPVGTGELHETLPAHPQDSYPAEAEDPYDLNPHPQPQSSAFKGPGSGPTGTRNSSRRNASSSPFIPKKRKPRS

T1: Nab3-TAP (S. cerevisiae) (UniProt P38996)
T1 sequence: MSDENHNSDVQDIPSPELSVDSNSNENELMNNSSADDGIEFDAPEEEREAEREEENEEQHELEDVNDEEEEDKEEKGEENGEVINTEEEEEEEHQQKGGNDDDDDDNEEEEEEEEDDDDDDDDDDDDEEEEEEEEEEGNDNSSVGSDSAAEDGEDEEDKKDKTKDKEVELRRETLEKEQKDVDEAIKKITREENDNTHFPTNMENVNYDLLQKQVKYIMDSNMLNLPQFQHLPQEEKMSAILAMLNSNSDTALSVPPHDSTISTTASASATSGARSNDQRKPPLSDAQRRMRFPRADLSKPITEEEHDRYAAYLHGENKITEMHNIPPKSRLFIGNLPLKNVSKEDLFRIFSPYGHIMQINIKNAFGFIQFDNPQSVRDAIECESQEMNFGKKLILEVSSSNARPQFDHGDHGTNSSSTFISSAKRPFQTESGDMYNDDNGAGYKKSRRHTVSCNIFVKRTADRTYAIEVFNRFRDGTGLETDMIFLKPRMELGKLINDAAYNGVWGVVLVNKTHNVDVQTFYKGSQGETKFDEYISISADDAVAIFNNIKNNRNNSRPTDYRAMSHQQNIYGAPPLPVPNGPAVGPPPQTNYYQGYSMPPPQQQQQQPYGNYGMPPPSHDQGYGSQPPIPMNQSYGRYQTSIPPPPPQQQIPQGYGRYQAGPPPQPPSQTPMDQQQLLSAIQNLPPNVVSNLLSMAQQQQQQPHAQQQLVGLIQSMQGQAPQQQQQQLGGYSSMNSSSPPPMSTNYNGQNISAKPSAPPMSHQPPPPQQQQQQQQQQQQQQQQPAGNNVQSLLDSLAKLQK


Target: T1, Nab3-TAP (S. cerevisiae)
Experiment: affinity purification with mass spectrometry

binding	Molecule
binds	Sen1 (from UniProt Q00416 1-2231)
binds	Nrd1 (protein, UniProt P53617 1-575) MQQDDDFQNFVATLESFKDLKSGISGSRIKKLTTYALDHIDIESKIISLIIDYSRLCPDSHKLGSLYIIDSIGRAYLDETRSNSNSSSNKPGTCAHAINTLGEVIQELLSDAIAKSNQDHKEKIRMLLDIWDRSGLFQKSYLNAIRSKCFAMDISNNTANTASQQLSLDPKQRSKQILSNLKKSPPLNLNISLPTDLTSTDPAKQQAALFQVIAALQKHFKTLPSHTSVGTVAPPQAHTITEYGSRRERERERERYNSRRNRSRSPPAPFSQPSTGRKDRYPSVAQDQYSIGAPNTTFGTNNHHLYPDELNVSNNPHYRPKPVSYDSTLPPDHIKVYSRTLFIGGVPLNMKEWDLANVLKPFAEVQSVILNNSRKHAFVKVYSRHEAENVLQNFNKDGALPLRTRWGVGFGPRDCCDYQHGYSIIPMHRLTDADKKWSVSAQWGGTSGQPLVTGIVFEEPDIIVGEGVSSKAISQKMPTDSGRNGPRSGKPNKSGSISSISPVPYGNAPLASPPPQQYVQPMMQQPYGYAPNQPLPSQGPAAAAPPVPQQQFDPTAQLNSLMNMLNQQQQQQQQS

Results are given in words; binding and its absence hold for the method and conditions named. In cells and extracts the contact can be indirect. These calls come from enrichment with a bait or labelling near it, and not all partners need be listed.
